{"source": "PubChem BioAssay (NCATS)", "note": "The inconclusive results got no clear call from the source; some entries with a clear call stand among them for comparison. A potency beside an inconclusive call is a rough fit, not a confirmed value. Calls of active or inactive are those of the source. Calls come from the whole dose curve; as a rule, active = well fitted cell-killing curve with a large enough effect; inconclusive = small, poorly fitted or top-dose-only effect, or effect the other way; inactive = no such curve, though single readings can be large or run the other way. Potency is the fitted concentration of half-maximal effect."}
{"assay": "Quantitative High-Throughput drug screen in 47 multiple myeloma cell lines against the NCATS MIPE library collection: Delta47_JCRB cell viability assay (AID 1918925; note: nearly all actives have a fitted effect of over 45% in size)", "conditions": "Delta47 myeloma viability, CellTiter-Glo ATP, 48 h; viability (% of DMSO): at 45.8 µM (top of the series)", "source_text": "PI: Beverly A. Mock Ph.D.\nLaboratory of Cancer Biology and Genetics,\nCenter for Cancer Research, National Cancer Institute,\nNational Institute of Health, Bethesda, Maryland\nDrug resistance and disease progression are common in multiple myeloma (MM) patients, underscoring the need for new therapeutic combinations. […] We hypothesized that effective combinations would reduce MYC expression and enhance p16 activity. […] These preclinical data identify potentially useful drug combinations for evaluation in drug-resistant MM and reveal potential mechanisms of combined drug sensitivity.\nDescribed herein is the primary MIPE qHTS used to cherrypick compounds. Validated compounds were then further tested for potential synergistic activiy.\n[1] Peat TJ, Gaikwad SM, Dubois W, Gyabaah-Kessie N, Zhang S, Gorjifard S, Phyo Z, Andres M, Hughitt VK, Simpson RM, Miller MA, Girvin AT, Taylor A, Williams D, D'Antonio N, Zhang Y, Rajagopalan A, Flietner E, Wilson K, Zhang X, Shinn P, Klumpp-Thomas C, McKnight C, Itkin Z, Chen L, Kazandijian D, Zhang J, Michalowski AM, Simmons JK, Keats J, Thomas CJ, Mock BA. Drug combinations identified by high-throughput screening promote cell cycle transition and upregulate Smad pathways in myeloma. Cancer Lett. 2023 Aug 1;568:216284. doi: 10.1016/j.canlet.2023.216284. Epub 2023 Jun 24. PMID: 37356470; PMCID: PMC10408729.\nSEQUENCE No. (e.g., 1, 2, 3, etc.); […] (e.g., Cells, Incubation, Reagent, etc.); VALUE and DESCRIPTION.\n1; Cells; 5 uL; white, solid bottom 1536-well Greiner assay plate.\n2; Compounds; 23 nL; Kalypsis pin tool (Wako USA) equipped with a 1536-well pin head to transfer to the assay plates.\n3; Incubation; 48 hours; 37C incubation.\n4; Reagent;5uL; CellTiter Glo (Promega).\n5; Detector; 425V; Luminescence; Viewlux PerkinElmer.\nNOTES (numbers refer to Sequence numbers above)\n1. The cell-based screening methods employed in this study were like those previously published. Briefly, the corresponding myeloma cell lines were screened in 1,536-well plates with 500 cells, 5-uL per well for inhibition of cell viability (assessed by measuring ATP levels with CellTiterGlo).\n2. NCATS MIPE 4.0 library of approved and investigational drugs were added using the Kalypsis pin tool. Wells treated with DMSO only for 100% viability and media only wells for 0% viability were used as controls.\n3. The assay plates were covered and incubated for 48 hours in a 37C, 5% CO2 incubator with controlled humidity.\n4. After 48 hours, CellTilter-GloTM luminescent substrate mix (Promega) reagent was added to the assay plate and plates we incubated for 5 min at room temperature.\n5. Signal was measured as median relative luminescence units on a ViewLux (PerkinElmer) multiplate reader.\n[1] Heske CM, Davis MI, Baumgart JT, Wilson K, Gormally MV, Chen L, Zhang X, Ceribelli M, Duveau DY, Guha R, Ferrer M, Arnaldez FI, Ji J, Tran HL, Zhang Y, Mendoza A, Helman LJ, Thomas CJ. Matrix Screen Identifies Synergistic Combination of PARP Inhibitors and Nicotinamide Phosphoribosyltransferase (NAMPT) Inhibitors in Ewing Sarcoma. Clin Cancer Res. 2017 Dec 1;23(23):7301-7311. doi: 10.1158/1078-0432.CCR-17-1121. Epub 2017 Sep 12. PMID: 28899971; PMCID: PMC6636827."}
{"smiles": "CC=C(C(=CC)c1ccc(O)cc1)c1ccc(O)cc1", "Potency": "inconclusive: 1.05 µM [cytotoxic, full curve, poor fit]"}
{"smiles": "O=c1[nH]cnc2[nH]ncc12", "Potency": "inactive"}
{"smiles": "Cn1cnc(-c2cc3nccc(Oc4ccc(NC(=S)NC(=O)Cc5ccccc5)cc4F)c3s2)c1", "Potency": "inconclusive: 13.2 µM [cytotoxic, partial curve]"}
{"smiles": "Cn1c(=O)c2c(ncn2C)n(C)c1=O", "Potency": "inconclusive: 0.0019 µM [cytotoxic, full curve, poor fit]"}
{"smiles": "CN1CCN2c3ccccc3Cc3ccccc3C2C1", "note": "(stereo not given)", "Potency": "inconclusive: 20.9 µM [cytotoxic, partial curve, poor fit]"}
{"smiles": "CCC(C)(C)c1ccc(CC(C)CN2C[C@@H](C)O[C@@H](C)C2)cc1", "note": "(stereo not given in full)", "Potency": "inconclusive: 18.7 µM [cytotoxic, partial curve, poor fit]"}
{"smiles": "C=C1c2cccc(O)c2C(O)=C2C(=O)[C@@]3(O)C(O)=C(C(N)=O)C(=O)[C@@H](N(C)C)[C@@H]3[C@@H](O)[C@H]12", "Potency": "inconclusive: 0.0017 µM [cytotoxic, full curve, poor fit]"}
{"smiles": "CCC1(C)CC(=O)NC1=O", "note": "(stereo not given)", "Potency": "inactive"}
{"smiles": "Nc1nc(Cl)nc2c1ncn2[C@@H]1O[C@H](CO)[C@@H](O)[C@H]1F", "Potency": "inconclusive: 0.0332 µM [cytotoxic, full curve]"}
{"smiles": "COc1c(C)c2c(c(O)c1CC=C(C)CCC(=O)OCCN1CCOCC1)C(=O)OC2", "Potency": "inactive"}
{"smiles": "NCCCC(N)(C(=O)O)C(F)F", "note": "(stereo not given)", "Potency": "inconclusive: 1.87 µM [cytotoxic, full curve, poor fit]"}
{"smiles": "COc1ccc2c(c1)c(CC(=O)OCC(=O)O)c(C)n2C(=O)c1ccc(Cl)cc1", "Potency": "inconclusive: 8.33 µM [cytotoxic, partial curve, poor fit]"}
{"smiles": "CCc1c(O)cc(O)c(C(=O)c2ccc(OCCN3CCOCC3)c(OC)c2)c1CC(=O)N(CCOC)CCOC", "Potency": "active: 1.66 µM"}
{"smiles": "C=CC(=O)Nc1cc2c(Nc3ccc(F)c(Cl)c3)ncnc2cc1OCCCN1CCOCC1", "Potency": "active: 2.96 µM"}
{"smiles": "CC(=O)NC(CS)C(=O)O", "note": "(stereo not given)", "Potency": "inactive"}
{"smiles": "Cc1ccc(NC(=O)c2cccc(C(C)(C)C#N)c2)cc1Nc1ccc2ncn(C)c(=O)c2c1", "Potency": "inconclusive: 13.2 µM [cytotoxic, partial curve]"}
{"smiles": "CC(C)c1onc(-c2c(Cl)cccc2Cl)c1COc1ccc(C=Cc2cccc(C(=O)O)c2)c(Cl)c1", "Potency": "inconclusive: 14.8 µM [cytotoxic, partial curve, poor fit]"}
{"smiles": "Cc1cc(OCCCS(C)(=O)=O)cc(C)c1-c1cccc(COc2ccc3c(c2)OC[C@H]3CC(=O)O)c1", "Potency": "inconclusive: 23.5 µM [cytotoxic, single point]"}
{"smiles": "Cc1ccc(-c2cc(C(F)(F)F)nn2-c2ccc(S(N)(=O)=O)cc2)cc1", "Potency": "active: 16.6 µM"}
{"smiles": "COc1ccc2c(c1)CC[C@@H](CN(C)CC(=O)O)[C@H]2c1ccccc1", "Potency": "inconclusive: 2.35 µM [cytotoxic, full curve]"}
{"smiles": "Cc1n[nH]c(C)c1Cc1sc2c(c1C(=O)N1C[C@H](O)CO1)c(=O)n(C)c(=O)n2CC(C)C", "Potency": "inactive"}
{"smiles": "CCOc1ccccc1OCCNC(C)Cc1ccc(OC)c(S(N)(=O)=O)c1", "note": "(stereo not given)", "Potency": "inactive"}
{"smiles": "S=P(N1CC1)(N1CC1)N1CC1", "Potency": "inconclusive: 6.62 µM [cytotoxic, partial curve, poor fit]"}
{"smiles": "OCCn1cc(-c2ccc3c(c2)CCC3=NO)c(-c2ccncc2)n1", "Potency": "inconclusive: 37.2 µM [cytotoxic, single point]"}
{"smiles": "O=C1C(c2c(O)[nH]c3ccccc23)=Nc2ccccc21", "Potency": "inconclusive: 11.8 µM [cytotoxic, single point]"}
{"smiles": "CC1(COc2ccc3c(c2)ncn3-c2ccc3cccc(N4CCC(N)CC4)c3n2)COC1", "Potency": "inconclusive: 0.0132 µM [cytotoxic, full curve]"}
{"smiles": "O=C(Nc1cccc2c(=O)cc(-c3nn[nH]n3)oc12)c1ccc(OCCCCc2ccccc2)cc1", "Potency": "inconclusive: 16.6 µM [cytotoxic, partial curve, poor fit]"}
{"smiles": "O=C(Nc1nnc(-c2ccco2)o1)c1cc(-c2ccccc2)nc2ccccc12", "Potency": "active: 18.7 µM"}
{"smiles": "COc1cc2ncnc(Nc3cc(Br)c(O)c(Br)c3)c2cc1OC", "Potency": "inconclusive: 0.0662 µM [cytotoxic, full curve]"}
{"smiles": "C[C@H](O)[C@@H]1C(=O)N2C(C(=O)O)=C(S[C@@H]3CN[C@H](CNS(N)(=O)=O)C3)[C@@H](C)[C@@H]12", "Potency": "inactive"}
{"smiles": "CC[C@]1(O)C[C@H]2CN(CCC3=c4ccccc4=N[C]3[C@@](C(=O)OC)(c3cc4c(cc3OC)N(C)[C@H]3[C@@](O)(C(N)=O)[C@H](O)[C@]5(CC)C=CCN6CC[C@]43[C@@H]65)C2)C1", "Potency": "inconclusive: 0.0187 µM [cytotoxic, full curve]"}
{"smiles": "CC(C)(C)C(=O)Oc1ccc(S(=O)(=O)Nc2ccccc2C(=O)NCC(=O)O)cc1", "viability (% of DMSO)": "inconclusive: 62.2% [cytotoxic]"}
{"smiles": "N#CC(=C1Nc2ccccc2S1)c1ccnc(OCc2ccc(CN3CCOCC3)cc2)n1", "Potency": "active: 7.43 µM"}
{"smiles": "CC(C)(CO)[C@@H](O)C(=O)NCCC(=O)O", "Potency": "inconclusive: 20.9 µM [cytotoxic, partial curve, poor fit]"}
{"smiles": "CC(C)OC(=O)[C@H](C)N[P@](=O)(OC[C@H]1O[C@@H](n2ccc(=O)[nH]c2=O)[C@](C)(F)[C@H]1O)Oc1ccccc1", "Potency": "inactive"}
{"smiles": "C=CC1=C(C(=O)O)N2C(=O)[C@@H](NC(=O)C(=NO)c3csc(N)n3)[C@H]2SC1", "Potency": "inactive"}
{"smiles": "C[C@]12C=CC(=O)C=C1CC[C@@H]1[C@@H]2C(=O)C[C@@]2(C)[C@H]1CC[C@]2(O)C(=O)CO", "Potency": "inconclusive: 0.0005 µM [rising, full curve, poor fit]"}
{"smiles": "C[C@H](CCC(=O)O)[C@H]1CC[C@H]2[C@@H]3[C@H](O)C[C@@H]4C[C@H](O)CC[C@]4(C)[C@@H]3CC[C@]12C", "Potency": "inactive"}
{"smiles": "COc1cc2c(c(OC)c1OC)-c1ccc(OC)c(=O)cc1[C@@H](NC(C)=O)CC2", "Potency": "inconclusive: 0.0053 µM [cytotoxic, partial curve, poor fit]"}
{"smiles": "O=c1c(O)c(-c2ccc(O)cc2O)oc2cc(O)cc(O)c12", "Potency": "inconclusive: 14.8 µM [cytotoxic, partial curve, poor fit]"}
